Results reported in publication PMC11475408, “All‐Inorganic Polyoxometalates Act as Superchaotropic Membrane Carriers” (Advanced Materials (Deerfield Beach, Fla.), 2023).

Key:
Format in all cases: binding
heptaarginine = assay: ITC, POM into heptaarginine; settings: 10 mM Tris; for n (ITC stoichiometry), heptaarginine: pH 7.4, 298.15 K, one-set-of-sites, duplicates, 5% error; for T∆S, heptaarginine / ∆H, heptaarginine: ITC, pH 7.4, error 0.5
Experimental: (§1) All experiments were performed with a VP‐ITC MicroCalorimeter from MicroCal, Int,. at atmospheric pressure and 298.15 K. Solutions were degassed and thermostatic prior to the titration experiments in a ThermoVac accessory. A constant volume of POM ([PVW11]^4‒ or [SiMoW11]^4‒) (10 µL per injection) was injected into the oligopeptide solution (heptaArg, protamine, polyArg or heptaLys) in 10 mM Tris, pH 7.4 to determine the apparent binding affinity of [PVW11]^4‒ and [SiMoW11]^4‒ with the oligopeptides. Dilution heats were determined by titration of the POM into buffer and subtracted from the reaction heat. The neat reaction heat was fitted with Origin 7.0 software by using the “one‐set‐of‐sites” model to obtain the complex stability constant (K a) and molar reaction enthalpy (∆H°). The free energy (∆G°) and entropy changes (∆S°) were obtained according to the relation: ∆G° = −RTlnK a = ∆H°−T∆S°.
(§2) 4. Supramolecular interactions
(§3) Figure S10. Microcalorimetric titrations in 10 mM Tris, pH 7.4: Raw ITC data (top) for the sequential injections of POM solution into an oligoarginine solution, and apparent reaction heats (bottom) obtained from the integration of the calorimetric traces. […]
(§4) values and ± 0.5 kcal mol‒1 for ΔH and TΔS (duplicate measurements). Note that none of these interactions lead to any precipitation or aggregates, confirmed by the absence of any detectable signal by DLS. […]
(§5) Figure S11. Microcalorimetric titrations in 10 mM Tris, pH 7.4: Raw ITC data (top) for the sequential injections of POM solution into a heptalysine solution, and apparent reaction heats (bottom) obtained from the integration of the calorimetric traces. POM/heptalysine concentrations in µM: a, 200/8 and b, 150/10. Error data is 5% for the n values and ± 0.5 kcal mol‒1 for ΔH and TΔS (duplicate […]
(§6) Table S6. Binding constants (Ka in M‒1) and thermodinamic data (in kcal mol‒1) measured for the complex formation between the stable and active POMs and oligoarginines in 10 mM Tris, pH 7.4. a) […]
(§7) a) Error data is 5% for the n values and ± 0.5 kcal mol‒1 for ΔH and TΔS (duplicate measurements).

protamine = assay: ITC, POM into protamine; settings: 10 mM Tris; for T∆S, protamine / ∆H, protamine: pH 7.4; for n, protamine: pH 7.4, duplicates
Experimental: as §1, §2, §3, §4, §5, §6, §7

polyarginine = assay: ITC, POM into polyarginine; settings: 10 mM Tris; for T∆S, polyarginine / ∆H, polyarginine: pH 7.4; for n, polyarginine: pH 7.4, duplicates
Experimental: as §1, §2, §3, §4, §5, §6, §7

heptalysine = assay: ITC, POM into heptalysine; settings: 10 mM Tris; for n, heptalysine: pH 7.4, duplicates
Experimental: as §1, §5, §6
a) Error data is 5% for the n values and ± 0.5 kcal mol‒1 for ΔH and TΔS (duplicate measurements). […]

| Substance | n (ITC stoichiometry), heptaarginine (heptaarginine; listed as [PVW11]4‒) | n (ITC stoichiometry), heptaarginine (heptaarginine; listed as [PVW11]^4−) | T∆S, heptaarginine (heptaarginine) | ∆H, heptaarginine (heptaarginine) | T∆S, protamine (protamine) | ∆H, protamine (protamine) | n, protamine (protamine) | T∆S, polyarginine (polyarginine) | ∆H, polyarginine (polyarginine) | n, polyarginine (polyarginine) | T∆S, heptalysine (heptalysine; pH 7.4) | ∆H, heptalysine (heptalysine; pH 7.4) | n, heptalysine (heptalysine) | n (ITC stoichiometry), heptaarginine (heptaarginine) |
| --- | --- | --- | --- | --- | --- | --- | --- | --- | --- | --- | --- | --- | --- | --- |
| K4[α‐P^VV^VW^VI 11O40]·4H2O [[PVW11]^4‒] | 0.90 | 0.9 | −12.8 kcal mol‒1 | −23.4 kcal mol‒1 | −11.3 kcal mol‒1 | −23.8 kcal mol‒1 | 3.1 | −12.5 kcal mol‒1 | −22.8 kcal mol‒1 | 6.7 | −5.2 kcal mol‒1 | −15.4 kcal mol‒1 | 2.0 | – |
| K4[α‐Si^IVMo^VIW^VI 11O40]·24H2O [[SiMoW11]^4‒] | – | – | −14.4 kcal mol‒1 | −23.7 kcal mol‒1 | −16.9 kcal mol‒1 | −26.8 kcal mol‒1 | 3.2 | −16.7 kcal mol‒1 | −26.5 kcal mol‒1 | 6.1 | – | −16.8 kcal mol‒1 | 1.9 | 1.1 |
